The target of the experiment is wild-type NEMO-GFP (IKKγ/NF-κB essential modulator) (human) (UniProt Q9Y6K9). The experiment in a line: co-IP; HEK293 cells transfected with GFP-tagged wild-type or S8,17,31A NEMO; lysates of TNFα-stimulated (10 ng/mL) cells immunoprecipitated with anti-GFP (GFP Isolation Kit, Miltenyi), immunoblotted with anti-NEMO, anti-IKKα and anti-Vps4A.

By UniProt entry, the sequences of proteins in these tests, tags left out.
UniProt Q9Y6K9: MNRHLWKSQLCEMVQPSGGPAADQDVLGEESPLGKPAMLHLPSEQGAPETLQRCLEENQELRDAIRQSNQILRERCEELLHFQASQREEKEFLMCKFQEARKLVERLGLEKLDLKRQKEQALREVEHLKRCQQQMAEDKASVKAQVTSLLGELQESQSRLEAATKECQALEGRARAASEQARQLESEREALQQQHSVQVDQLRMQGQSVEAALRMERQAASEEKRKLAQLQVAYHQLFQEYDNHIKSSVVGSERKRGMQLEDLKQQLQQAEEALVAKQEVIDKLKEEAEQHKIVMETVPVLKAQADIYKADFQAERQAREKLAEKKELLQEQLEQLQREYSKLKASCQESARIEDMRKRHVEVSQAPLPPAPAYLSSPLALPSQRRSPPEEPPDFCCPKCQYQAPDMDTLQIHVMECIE

No constants are given. Whether binding was seen depends on the method and setting. In cells and extracts the contact can be indirect. Some binding calls cover weakened binding; strength is not graded here.

B1: AAA-ATPase Vps4A (protein, UniProt Q9UN37 1-437)
chain: MTTSTLQKAIDLVTKATEEDKAKNYEEALRLYQHAVEYFLHAIKYEAHSDKAKESIRAKCVQYLDRAEKLKDYLRSKEKHGKKPVKENQSEGKGSDSDSEGDNPEKKKLQEQLMGAVVMEKPNIRWNDVAGLEGAKEALKEAVILPIKFPHLFTGKRTPWRGILLFGPPGTGKSYLAKAVATEANNSTFFSVSSSDLMSKWLGESEKLVKNLFELARQHKPSIIFIDEVDSLCGSRNENESEAARRIKTEFLVQMQGVGNNNDGTLVLGATNIPWVLDSAIRRRFEKRIYIPLPEEAARAQMFRLHLGSTPHNLTDANIHELARKTEGYSGADISIIVRDSLMQPVRKVQSATHFKKVCGPSRTNPSMMIDDLLTPCSPGDPGAMEMTWMDVPGDKLLEPVVCMSDMLRSLATTRPTVNADDLLKVKKFSEDFGQES
Take B1: the binding result is on record as “binds”.

(Values after paper PMC9223704.)
